This is one part of the list.

Chains of the proteins cited; added tags and fusions are not shown. Lines headed by an entry give the natural chain unless they say otherwise; changes in a name come on top.
UniProt O43390: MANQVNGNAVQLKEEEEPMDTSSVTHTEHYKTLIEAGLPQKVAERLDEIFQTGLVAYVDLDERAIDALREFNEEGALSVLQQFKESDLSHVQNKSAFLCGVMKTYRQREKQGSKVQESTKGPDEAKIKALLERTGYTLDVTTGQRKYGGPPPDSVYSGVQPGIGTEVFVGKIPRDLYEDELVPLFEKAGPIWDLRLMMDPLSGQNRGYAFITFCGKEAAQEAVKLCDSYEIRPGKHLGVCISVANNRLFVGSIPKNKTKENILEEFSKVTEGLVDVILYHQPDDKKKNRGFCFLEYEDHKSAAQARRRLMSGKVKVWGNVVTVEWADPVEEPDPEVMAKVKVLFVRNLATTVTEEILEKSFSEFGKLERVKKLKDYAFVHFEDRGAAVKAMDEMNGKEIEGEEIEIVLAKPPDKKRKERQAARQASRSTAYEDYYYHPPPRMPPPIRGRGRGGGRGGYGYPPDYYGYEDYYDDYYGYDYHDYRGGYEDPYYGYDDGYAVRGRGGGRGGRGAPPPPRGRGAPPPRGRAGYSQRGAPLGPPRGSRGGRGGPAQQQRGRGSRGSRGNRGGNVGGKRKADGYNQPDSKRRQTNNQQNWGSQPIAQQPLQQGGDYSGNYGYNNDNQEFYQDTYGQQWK
UniProt Q5GLZ8: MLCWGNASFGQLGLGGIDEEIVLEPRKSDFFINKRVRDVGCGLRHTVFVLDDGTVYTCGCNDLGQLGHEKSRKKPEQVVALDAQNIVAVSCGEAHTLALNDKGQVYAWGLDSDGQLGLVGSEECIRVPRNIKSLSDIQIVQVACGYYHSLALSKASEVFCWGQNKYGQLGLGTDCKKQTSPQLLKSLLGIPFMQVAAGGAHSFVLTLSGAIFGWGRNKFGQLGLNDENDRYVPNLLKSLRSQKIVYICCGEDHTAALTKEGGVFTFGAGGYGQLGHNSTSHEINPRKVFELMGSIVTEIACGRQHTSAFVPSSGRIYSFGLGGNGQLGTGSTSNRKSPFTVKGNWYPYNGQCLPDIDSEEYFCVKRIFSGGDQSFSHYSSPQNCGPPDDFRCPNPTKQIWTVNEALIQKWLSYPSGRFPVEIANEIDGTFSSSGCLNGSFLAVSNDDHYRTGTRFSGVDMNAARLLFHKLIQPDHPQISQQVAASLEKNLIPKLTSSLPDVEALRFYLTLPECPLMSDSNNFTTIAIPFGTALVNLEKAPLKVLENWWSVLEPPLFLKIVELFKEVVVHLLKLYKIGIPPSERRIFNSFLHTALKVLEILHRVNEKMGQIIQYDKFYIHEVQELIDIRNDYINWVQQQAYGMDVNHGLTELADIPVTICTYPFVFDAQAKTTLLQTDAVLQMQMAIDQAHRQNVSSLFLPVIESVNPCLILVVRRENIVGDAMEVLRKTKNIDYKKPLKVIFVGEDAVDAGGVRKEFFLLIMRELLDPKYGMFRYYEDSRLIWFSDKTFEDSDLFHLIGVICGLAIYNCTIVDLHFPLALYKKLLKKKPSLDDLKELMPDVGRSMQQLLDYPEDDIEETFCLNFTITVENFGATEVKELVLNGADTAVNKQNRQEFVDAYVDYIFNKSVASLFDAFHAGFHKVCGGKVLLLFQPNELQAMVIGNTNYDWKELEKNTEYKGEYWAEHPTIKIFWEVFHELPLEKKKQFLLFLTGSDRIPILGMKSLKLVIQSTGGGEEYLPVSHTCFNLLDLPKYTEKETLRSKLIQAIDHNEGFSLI
UniProt Q8IX15: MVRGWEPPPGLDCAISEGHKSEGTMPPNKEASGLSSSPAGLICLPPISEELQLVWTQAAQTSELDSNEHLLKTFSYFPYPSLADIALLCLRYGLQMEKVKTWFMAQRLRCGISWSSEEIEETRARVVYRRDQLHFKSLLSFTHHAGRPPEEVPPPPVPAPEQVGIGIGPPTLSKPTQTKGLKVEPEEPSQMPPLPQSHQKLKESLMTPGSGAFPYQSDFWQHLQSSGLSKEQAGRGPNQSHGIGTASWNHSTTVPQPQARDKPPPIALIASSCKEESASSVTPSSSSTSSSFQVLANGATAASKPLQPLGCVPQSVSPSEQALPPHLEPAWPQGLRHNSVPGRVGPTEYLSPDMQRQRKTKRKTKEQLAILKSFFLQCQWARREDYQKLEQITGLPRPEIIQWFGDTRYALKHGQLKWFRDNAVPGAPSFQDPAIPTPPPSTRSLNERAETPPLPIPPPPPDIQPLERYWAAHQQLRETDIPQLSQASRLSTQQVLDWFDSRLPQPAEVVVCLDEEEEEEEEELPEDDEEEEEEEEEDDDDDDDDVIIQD
UniProt Q3SXM5: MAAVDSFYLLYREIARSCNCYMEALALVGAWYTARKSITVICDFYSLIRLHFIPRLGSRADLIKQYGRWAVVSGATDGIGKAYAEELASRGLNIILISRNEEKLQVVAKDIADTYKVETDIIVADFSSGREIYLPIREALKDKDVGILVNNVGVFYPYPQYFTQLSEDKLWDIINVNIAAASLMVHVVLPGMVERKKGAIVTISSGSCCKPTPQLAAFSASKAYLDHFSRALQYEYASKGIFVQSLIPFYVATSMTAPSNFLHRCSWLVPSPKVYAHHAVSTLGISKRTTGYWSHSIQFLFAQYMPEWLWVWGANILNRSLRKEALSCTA
UniProt P51991: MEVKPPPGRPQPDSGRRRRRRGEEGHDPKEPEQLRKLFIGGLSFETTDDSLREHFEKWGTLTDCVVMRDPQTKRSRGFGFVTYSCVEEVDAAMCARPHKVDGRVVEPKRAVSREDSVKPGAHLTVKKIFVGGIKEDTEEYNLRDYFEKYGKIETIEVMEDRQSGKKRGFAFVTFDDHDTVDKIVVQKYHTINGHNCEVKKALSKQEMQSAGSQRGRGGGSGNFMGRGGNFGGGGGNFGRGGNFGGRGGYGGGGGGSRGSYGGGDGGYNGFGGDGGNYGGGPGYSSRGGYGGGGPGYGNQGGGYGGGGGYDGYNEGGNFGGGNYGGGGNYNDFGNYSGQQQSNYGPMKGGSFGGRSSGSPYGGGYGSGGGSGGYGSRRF
UniProt Q8TDG4: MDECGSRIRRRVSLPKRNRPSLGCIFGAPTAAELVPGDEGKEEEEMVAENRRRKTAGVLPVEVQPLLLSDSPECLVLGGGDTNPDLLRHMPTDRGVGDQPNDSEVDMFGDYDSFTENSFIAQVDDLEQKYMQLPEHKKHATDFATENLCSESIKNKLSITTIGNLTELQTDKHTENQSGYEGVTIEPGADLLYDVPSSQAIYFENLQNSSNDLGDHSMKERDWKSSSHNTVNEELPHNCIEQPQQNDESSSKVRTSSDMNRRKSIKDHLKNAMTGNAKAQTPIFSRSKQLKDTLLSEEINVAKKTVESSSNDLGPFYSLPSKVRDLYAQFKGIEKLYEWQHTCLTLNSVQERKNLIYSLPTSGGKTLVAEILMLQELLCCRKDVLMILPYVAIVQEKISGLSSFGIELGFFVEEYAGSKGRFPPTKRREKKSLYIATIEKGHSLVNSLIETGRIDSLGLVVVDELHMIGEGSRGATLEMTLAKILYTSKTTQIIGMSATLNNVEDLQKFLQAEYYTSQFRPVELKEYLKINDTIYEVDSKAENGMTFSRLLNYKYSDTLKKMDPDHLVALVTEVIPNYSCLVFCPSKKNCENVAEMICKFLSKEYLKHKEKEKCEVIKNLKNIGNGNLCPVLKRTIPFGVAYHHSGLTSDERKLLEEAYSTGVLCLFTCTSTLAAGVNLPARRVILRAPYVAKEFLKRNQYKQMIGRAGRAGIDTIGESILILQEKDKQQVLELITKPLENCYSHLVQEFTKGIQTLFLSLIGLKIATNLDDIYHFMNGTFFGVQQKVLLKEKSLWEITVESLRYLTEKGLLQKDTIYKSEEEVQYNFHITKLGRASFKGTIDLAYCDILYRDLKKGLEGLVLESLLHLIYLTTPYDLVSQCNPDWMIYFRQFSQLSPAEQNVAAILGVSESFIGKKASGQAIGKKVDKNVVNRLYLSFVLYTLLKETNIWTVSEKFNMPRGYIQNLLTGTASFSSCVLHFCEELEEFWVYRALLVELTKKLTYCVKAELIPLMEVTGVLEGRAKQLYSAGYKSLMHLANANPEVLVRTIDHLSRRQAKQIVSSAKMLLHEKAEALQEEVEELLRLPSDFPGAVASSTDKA
UniProt P26583: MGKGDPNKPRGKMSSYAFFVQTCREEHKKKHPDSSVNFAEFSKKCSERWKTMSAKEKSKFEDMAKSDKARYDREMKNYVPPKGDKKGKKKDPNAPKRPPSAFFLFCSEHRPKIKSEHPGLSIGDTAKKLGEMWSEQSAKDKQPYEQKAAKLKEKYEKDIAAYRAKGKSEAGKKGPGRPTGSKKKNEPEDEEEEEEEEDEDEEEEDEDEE
UniProt Q99729: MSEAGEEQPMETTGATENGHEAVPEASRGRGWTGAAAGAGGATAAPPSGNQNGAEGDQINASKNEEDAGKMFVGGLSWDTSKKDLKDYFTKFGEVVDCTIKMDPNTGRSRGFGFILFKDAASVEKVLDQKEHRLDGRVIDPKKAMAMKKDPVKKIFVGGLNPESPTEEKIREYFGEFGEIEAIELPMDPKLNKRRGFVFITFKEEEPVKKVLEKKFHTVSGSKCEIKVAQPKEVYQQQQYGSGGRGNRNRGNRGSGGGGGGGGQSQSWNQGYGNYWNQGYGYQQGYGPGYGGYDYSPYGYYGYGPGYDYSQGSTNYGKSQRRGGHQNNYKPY
UniProt Q8NBQ5: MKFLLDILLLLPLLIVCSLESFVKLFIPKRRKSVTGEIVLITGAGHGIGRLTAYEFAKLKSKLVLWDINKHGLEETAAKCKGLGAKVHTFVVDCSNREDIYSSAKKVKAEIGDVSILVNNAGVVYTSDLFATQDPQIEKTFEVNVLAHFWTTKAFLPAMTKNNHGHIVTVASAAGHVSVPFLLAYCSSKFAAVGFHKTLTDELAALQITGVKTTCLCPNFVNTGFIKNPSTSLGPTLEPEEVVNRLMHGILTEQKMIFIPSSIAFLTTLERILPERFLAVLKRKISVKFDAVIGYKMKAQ
UniProt Q13151: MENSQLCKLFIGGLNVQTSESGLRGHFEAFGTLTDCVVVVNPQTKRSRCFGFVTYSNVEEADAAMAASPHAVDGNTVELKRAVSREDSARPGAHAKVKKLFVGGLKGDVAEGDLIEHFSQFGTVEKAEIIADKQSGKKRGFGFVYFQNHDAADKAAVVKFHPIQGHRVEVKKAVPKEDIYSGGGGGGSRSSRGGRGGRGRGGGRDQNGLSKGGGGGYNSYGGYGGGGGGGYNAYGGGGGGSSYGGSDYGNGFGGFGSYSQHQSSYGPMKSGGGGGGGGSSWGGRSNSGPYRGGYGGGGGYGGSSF
UniProt Q6NVY1: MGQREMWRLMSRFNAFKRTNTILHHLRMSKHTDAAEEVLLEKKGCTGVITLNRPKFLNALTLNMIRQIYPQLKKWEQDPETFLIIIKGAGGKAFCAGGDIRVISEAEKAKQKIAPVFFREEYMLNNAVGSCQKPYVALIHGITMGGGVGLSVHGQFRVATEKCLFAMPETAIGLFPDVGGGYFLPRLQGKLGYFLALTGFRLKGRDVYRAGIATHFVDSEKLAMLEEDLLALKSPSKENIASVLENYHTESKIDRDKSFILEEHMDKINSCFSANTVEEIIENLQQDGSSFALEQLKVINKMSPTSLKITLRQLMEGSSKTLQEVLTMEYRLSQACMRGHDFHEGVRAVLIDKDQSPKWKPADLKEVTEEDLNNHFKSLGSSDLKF
UniProt P82970: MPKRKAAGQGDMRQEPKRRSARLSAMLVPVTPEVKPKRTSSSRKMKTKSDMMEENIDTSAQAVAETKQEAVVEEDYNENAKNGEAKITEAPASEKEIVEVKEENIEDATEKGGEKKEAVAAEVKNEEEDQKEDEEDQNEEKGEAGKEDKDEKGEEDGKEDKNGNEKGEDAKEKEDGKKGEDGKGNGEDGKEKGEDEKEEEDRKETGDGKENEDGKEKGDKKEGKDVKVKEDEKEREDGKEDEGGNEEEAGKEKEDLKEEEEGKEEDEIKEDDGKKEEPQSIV
UniProt P05114: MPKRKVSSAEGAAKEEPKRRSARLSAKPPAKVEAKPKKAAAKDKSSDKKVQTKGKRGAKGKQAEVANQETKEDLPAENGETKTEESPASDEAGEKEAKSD
UniProt Q58FF6, whole entry, looked up: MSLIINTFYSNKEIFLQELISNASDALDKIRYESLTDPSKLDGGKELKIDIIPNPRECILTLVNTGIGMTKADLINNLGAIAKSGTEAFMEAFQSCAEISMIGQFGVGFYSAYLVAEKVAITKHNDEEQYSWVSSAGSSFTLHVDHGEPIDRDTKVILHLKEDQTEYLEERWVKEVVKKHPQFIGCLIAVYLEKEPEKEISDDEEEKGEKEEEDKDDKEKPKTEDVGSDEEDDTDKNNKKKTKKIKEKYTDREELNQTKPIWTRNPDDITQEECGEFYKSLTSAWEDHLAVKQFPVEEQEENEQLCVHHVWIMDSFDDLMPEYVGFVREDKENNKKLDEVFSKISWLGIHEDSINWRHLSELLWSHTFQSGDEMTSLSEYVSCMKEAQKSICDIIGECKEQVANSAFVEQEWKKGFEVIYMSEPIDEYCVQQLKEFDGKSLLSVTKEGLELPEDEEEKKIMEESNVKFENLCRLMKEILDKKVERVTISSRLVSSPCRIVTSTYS

Compound in the experiment: O=C1NC(=O)C(c2cnc3ccccn23)=C1c1cn2c3c(cc(F)cc13)CN(C(=O)N1CCCCC1)CC2
As to the kind of experiment: log2 fold change, soluble protein after heating vs DMSO (PISA); higher = thermal stabilisation; K562 lysate, 10 uM; active = over 0.2 and 3.5 SD of the protein, either way, in both replicates (recomputed). The essentials: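 Pellets of K562 cells were dounce-homogenised in PBS pH 7.4 with 1 mM MgCl2, and the crude extract was held at 1 mg/mL protein for a 30 min treatment with 10 μM compound. Aliquots were heated for 3 min over 48°C-58°C and pooled before NP-40 was added to 0.5% at 4°C. The supernatant from 21,000xg for 90 min was quantified by TMTpro 16plex LC-MS/MS with channel sums equalised. Values are reported from duplicates as log-two fold change in thermal stability relative to solvent controls.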
As for HNRNPR isoform 2 (UniProt O43390), the log2 fold change is inactive: -0.023. In the case of HERC4 (UniProt Q5GLZ8) it was inactive: 0.002; in that of HOMEZ isoform 3 (UniProt Q8IX15), inactive: -0.013; in that of HSDL1 (UniProt Q3SXM5), inactive: -0.041.

With HNRNPA3 (UniProt P51991), the log2 fold change is inactive: 0.023. In the case of HSP90AB1 (UniProt P08238) it was inactive: 0.009; in that of HELQ (UniProt Q8TDG4), inactive: 0.017; in that of HMGB2 (UniProt P26583), inactive: 0.047. With HNRNPAB isoform 3 (UniProt Q99729), the log2 fold change is inactive: 0.008. Under HNRNPK isoform 3 (UniProt P61978) stands inactive: 0.024. Under HSD17B11 (UniProt Q8NBQ5) stands inactive: -0.01; under HNRNPL (UniProt P14866), inactive: 0.028. Under HNRNPLL (UniProt Q8WVV9) stands inactive: 0.004; under HMG20A (UniProt Q9NP66), inactive: -0.135; under HNRNPA0 (UniProt Q13151), inactive: 0.044. In the case of HMGB3 (UniProt O15347), the log2 fold change was inactive: -0.004.

Turning to HIBCH (UniProt Q6NVY1), the log2 fold change was inactive: -0.003. In the case of HMGN5 (UniProt P82970) it was inactive: -0.005. In the case of HMGN1 (UniProt P05114) it was inactive: -0.023. Turning to HK2 (UniProt P52789), the log2 fold change is inactive: 0.007. In the case of HSP90AB4P (UniProt Q58FF6) it was inactive: -0.119; in that of HNRNPH3 (UniProt P31942), inactive: -0.085.
